# Experimental data reported in the supplement of paper PMC3334620.
# Over roughly 33,000 sequences, “E-score (-0.5 to 0.5)” has its median near -8e-05; the highest 2% begin near 0.23. The list shows a part of the results.
# Target: T1, Nrg2 (UniProt P38082)
# T1 sequence: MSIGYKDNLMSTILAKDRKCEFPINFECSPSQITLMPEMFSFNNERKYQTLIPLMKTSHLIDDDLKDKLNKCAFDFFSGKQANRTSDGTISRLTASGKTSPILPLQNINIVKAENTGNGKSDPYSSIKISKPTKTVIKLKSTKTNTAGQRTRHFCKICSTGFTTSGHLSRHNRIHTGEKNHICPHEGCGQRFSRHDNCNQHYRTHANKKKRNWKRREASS
# Assay: PBM E-score (8-mer binding enrichment) (E-score (-0.5 to 0.5)); higher = stronger / more preferred TF binding
# Conditions: protein concentration: 100 nM; construct: GST-full length
# Method in brief: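 GST-tagged yeast TFs (full-length or DNA-binding domain) were made by PURExpress in vitro transcription/translation and applied at about 100-200 nM to universal all-10-mer Agilent arrays. The arrays were made double-stranded by primer extension, on fresh or once-stripped slides. Bound protein was detected with fluorescent anti-GST, and scans were normalised with masliner. Each ungapped eight-base word, pooled with its reverse complement, received an E-score (modified Wilcoxon-Mann-Whitney statistic) from the Universal PBM Analysis Suite.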
row,Sequence,PBM E-score
1,ATCCGTGC,0.039
2,CGGCGGAA,0.141
3,AATCTAAT,-0.0552
4,CTAGAGTA,-0.0664
5,AATTCGTC,0.201
6,CTCCCTCA,-0.106
7,AACCCTTC,0.168
8,ATCAATAG,0.0823
9,ATAGGACA,-0.118
10,CCACGTTA,0.0534
11,AAATGGGG,-0.0617
12,ACTATCCA,0.0385
13,CACCGTGC,0.128
14,CCCGGACC,-0.162
15,CCGCGGAA,0.189
16,AGCACCAC,-0.242
17,CATAAAGA,0.0609
18,CTACGAAA,-0.109
19,AATACCGT,0.099
20,CTCTGACA,0.123
21,TCAGTACA,0.102
22,GCCGTGCC,-0.147
23,AACTGCAA,-0.00575
24,ATGTTCCC,-0.0414
25,ATTCCAGC,-0.0562

row,Sequence,PBM E-score
1,ACGTATAA,-0.0193
2,ACCCCTAG,0.153
3,CCCCGTCA,-0.0623
4,GAATTTGC,0.172
5,GGTGAGAC,-0.216
6,CGGATGCA,-0.198
7,AGTCTTCC,-0.184
8,AGGAAAGC,-0.172
9,ACTAAAGT,-0.0406
10,CGACAATC,0.009
11,CTTGAAGC,-0.0505
12,GAACTCAC,-0.00682
13,ATAGGCGC,0.0186
14,ACTGACCC,-0.133
15,CGGGTCTA,-0.0249
16,AGTAGTGG,0.175
17,AATTAGAA,0.0674
18,ACATGTCA,-0.0279
19,AGGCGGGC,-0.121
20,ACCCGTAC,0.0835
21,ATAAAGGC,-0.208
22,AGAACTCA,0.0527
23,AGTGATCA,0.063
24,AGACGTAT,-0.137
25,CCAAACCA,-0.0594

row,Sequence,PBM E-score
1,GGCGCACC,-0.107
2,AACTGCAG,-0.0636
3,GTTATTAA,0.182
4,ATGTCAAA,0.0408
5,AAACACTT,0.122
6,GACACTTA,-0.0717
7,GCTGCAGA,0.139
8,AACGCGAG,0.092
9,TAGGATCA,0.0925
10,ACACGCAA,0.122
11,GCAACCCA,-0.0957
12,GCCCCGGA,-0.0937
13,AGTTTGAT,0.129
14,CAAAGTGA,0.0979
15,CAACCCCA,0.206
16,CAGACACC,-0.0427
17,CGAAGGGA,0.144
18,CGGTCTCC,-0.0422
19,ACGATACG,-0.0773
20,GGCAACGA,0.148
21,GAATCGGA,0.202
22,CTAGTCCA,-0.123
23,CCCGACCG,-0.0769
24,GATAGAGC,0.0906
25,TGCCAAAA,0.136

row,Sequence,PBM E-score
1,ACTTTACG,-0.0231
2,AAAGTTCA,-0.06
3,GTATTAAC,-0.0959
4,CGTGGGAA,-0.179
5,ACAGCTAG,0.0222
6,ATCCACTG,0.045
7,TAGCGGAA,-0.0638
8,ATATGGAT,0.247
9,ACCTTGCT,-0.0256
10,CGGCACGC,-0.261
11,GGGGATCA,-0.142
12,AAAGTCCC,-0.055
13,ACTTCGGG,0.0979
14,CTGTCTTC,-0.00142
15,CAAAGCAC,-0.0605
16,CCAATTGC,-0.0326
17,GGGCTTGA,-0.2
18,ACACAGGG,0.238
19,CATGGCAA,0.0789
20,AACCTGAA,-0.178
21,TGCTGTAA,-0.119
22,CCAACTAG,0.0525
23,TTCAACAA,0.0713
24,GCCGAACA,-0.0146
25,AAATTATT,0.178

row,Sequence,PBM E-score
1,CCCGAATA,0.105
2,AAGTAGAC,0.00904
3,CATAGTGG,0.0653
4,AGAAGCAG,-0.125
5,GACGAGGA,0.0917
6,ACAAGGTG,0.11
7,AGCCGTGG,-0.213
8,CTCTGGTA,-0.0435
9,AGATCGTC,-0.0895
10,ACCAACTG,0.108
11,TATCGCGA,0.252
12,AGGCCGAA,0.026
13,GACATTAC,-0.0297
14,ATGATGAA,0.31
15,CACATCCC,0.083
16,GGCGATAA,0.0868
17,ATTTAGCC,0.131
18,CCATTTAC,0.0881
19,ACCACTAT,0.046
20,AAAGAGGT,0.0409
21,ACCCAGCG,-0.179
22,ACTGAGGA,-0.0659
23,AAGGGATT,0.0146
24,GACTCAAC,0.0715
25,ATTTTGAA,0.102

# Individual results from the results shown.
# Value of AAGGGATT under PBM E-score: 0.0146
# Value of GACGAGGA under PBM E-score: 0.0917
# Value of ACTGAGGA under PBM E-score: -0.0659
# Value of CATAGTGG under PBM E-score: 0.0653
# Value of GGCGATAA under PBM E-score: 0.0868
# Value of ACAAGGTG under PBM E-score: 0.11
# Value of AAGTAGAC under PBM E-score: 0.00904

# Remaining list, next part

row,Sequence,PBM E-score
1,CTTGCATA,0.153
2,AGCAGATA,-0.00568
3,GATACAAC,0.0948
4,ATTTACGG,0.186
5,CCACTAAC,0.00817
6,TGCATGAA,0.155
7,CACCGTCG,-0.118
8,CCGGCAAC,-0.142
9,CAAGTAGA,-0.0872
10,AGGGACGA,0.248
11,TCTTACCA,-0.00367
12,TGCATTAA,0.0765
13,CTAGGAAA,-0.0879
14,CCTTATGC,0.147
15,GAGCTATC,-0.182
16,CCGTCCCG,-0.203
17,ATGACTGG,-0.231
18,GCGGCGGA,0.181
19,GTCCAGAA,-0.0377
20,GAGATGGC,0.102
21,CACTTTCG,-0.0303
22,CACAGTTC,0.0745
23,AGGTGGGG,-0.0339
24,GTCCCTGA,0.356
25,CATAGCGA,-0.0858

row,Sequence,PBM E-score
1,CGTCACCC,-0.106
2,AAAATGGC,0.124
3,AAAGTCCA,-0.00565
4,GAACGAAC,0.0458
5,ACTATCCT,-0.0563
6,AGGGCTAG,-0.142
7,AATCCCTA,0.154
8,AGCCTGGA,-0.0491
9,AGACAGAC,0.209
10,AGGGTCAG,-0.102
11,CTCAACTA,0.116
12,ATATAGAA,0.175
13,GTAGACTA,-0.3
14,CCTTGGGA,-0.0807
15,ACTTACCA,0.00217
16,AGTCGAGG,-0.0493
17,TAATAGAA,0.0357
18,ACCCCGAC,-0.0792
19,CGGGCTAA,-0.175
20,AGTTGTCA,0.133
21,TAGACACA,-0.216
22,TCTATCCA,-0.0657
